Experimental data: PubChem BioAssay AID1224828 (NIAID, 2016)

Test: 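Regulators linking TLR4 signalling to p65 nuclear translocation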 (primary screen)
Cell system: mouse RAW264.7 G9 macrophage reporter cells (GFP-p65, Tnf promoter-mCherry)
Reagents: siRNA pool against mouse genes, 100 nM
Timing: 2 days siRNA transfection, then 40 min LPS before fixation
Challenge: LPS (Salmonella minnesota R595) at 10 ng/ml
Read-out: 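Imaged p65 nuclear translocation ratio, normalised to the plate median, converted to robust z-scores and averaged across two replicates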
Direction: p65 translocation robust z-score: higher = more nuclear NF-kappaB p65 after LPS than the plate median; nuclear/cytoplasmic p65 ratio: higher = more nuclear NF-kappaB p65
Hit rule: 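Active if robust z is above 3.3 (negative regulators) or below -1.56, the Tlr4 control median (positive regulators); activity score 50 or more; control wells not called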
Calls: active = hit (p65 shift raised or lowered); inactive = no clear change
Shown is one part, drawn at random, of about 17,000 deposited reagents. Of all reagents, 762 (4.5%) are marked active. 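Active calls include both raised and lowered p65 entry, mostly lowered; wells with fewer than 50 cells lack a z-score.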 Raw values are not corrected between plates.

| target | p65 translocation robust z-score | nuclear/cytoplasmic p65 ratio, rep 1 | nuclear/cytoplasmic p65 ratio, rep 2 | low cell count flag | call |
| --- | --- | --- | --- | --- | --- |
| Tcaf3 | – | 1.15 | 1.57 | fewer than 50 cells per well; well left out of scoring | inactive |
| Krt5 | -0.49 | 1.46 | 1.27 | enough cells to score | inactive |
| Defb19 | 1.55 | 1.84 | 1.73 | enough cells to score | inactive |
| Rps2 | -1.07 | 1.38 | 1.41 | enough cells to score | inactive |
| Ackr2 | – | 1.57 | 1.65 | fewer than 50 cells per well; well left out of scoring | inactive |
| Tmem229b | 1.84 | 1.48 | 1.83 | enough cells to score | inactive |
| Emc2 | 1.61 | 1.52 | 1.43 | enough cells to score | inactive |
| Cdkl1 | 1.14 | 1.91 | 1.5 | enough cells to score | inactive |
| Vmn2r30 | -0.92 | 1.25 | 1.14 | enough cells to score | inactive |
| Slc25a30 | 1.66 | 1.51 | 1.45 | enough cells to score | inactive |
| Rilpl1 | 0.27 | 1.32 | 1.26 | enough cells to score | inactive |
| Nrg4 | -1.51 | 1.48 | 1.57 | enough cells to score | inactive |
| Prkra | 1.63 | 2.03 | 1.51 | enough cells to score | inactive |
| Reps2 | – | 1.48 | 1.4 | fewer than 50 cells per well; well left out of scoring | inactive |
| A330008L17Rik | -0.46 | 1.2 | 1.46 | enough cells to score | inactive |
| Dpyd | -1.3 | 1.4 | 1.2 | enough cells to score | inactive |
| Cyp2d13 | 1.36 | 1.78 | 2 | enough cells to score | inactive |
| Cenpx | 1.55 | 1.58 | 1.44 | enough cells to score | inactive |
| Eif4ebp2 | 0.08 | 1.45 | 1.4 | enough cells to score | inactive |
| Galm | 0.63 | 1.76 | 1.48 | enough cells to score | inactive |
| Bpgm | -0.44 | 1.55 | 1.54 | enough cells to score | inactive |
| Pop4 | 0.06 | 1.47 | 1.45 | enough cells to score | inactive |
| Tbx1 | 0.2 | 1.5 | 1.6 | enough cells to score | inactive |
| Hcrtr2 | -0.77 | 1.28 | 1.32 | enough cells to score | inactive |
| Vps41 | 0.32 | 1.4 | 1.29 | enough cells to score | inactive |

Laid out differently: entries from further up
{"target": "Ackr2", "nuclear/cytoplasmic p65 ratio, rep 1": 1.57, "nuclear/cytoplasmic p65 ratio, rep 2": 1.65, "low cell count flag": "fewer than 50 cells per well; well left out of scoring", "call": "inactive"}
{"target": "Tmem229b", "p65 translocation robust z-score": 1.84, "nuclear/cytoplasmic p65 ratio, rep 1": 1.48, "nuclear/cytoplasmic p65 ratio, rep 2": 1.83, "low cell count flag": "enough cells to score", "call": "inactive"}
{"target": "Emc2", "p65 translocation robust z-score": 1.61, "nuclear/cytoplasmic p65 ratio, rep 1": 1.52, "nuclear/cytoplasmic p65 ratio, rep 2": 1.43, "low cell count flag": "enough cells to score", "call": "inactive"}
{"target": "Cdkl1", "p65 translocation robust z-score": 1.14, "nuclear/cytoplasmic p65 ratio, rep 1": 1.91, "nuclear/cytoplasmic p65 ratio, rep 2": 1.5, "low cell count flag": "enough cells to score", "call": "inactive"}
{"target": "Vmn2r30", "p65 translocation robust z-score": -0.92, "nuclear/cytoplasmic p65 ratio, rep 1": 1.25, "nuclear/cytoplasmic p65 ratio, rep 2": 1.14, "low cell count flag": "enough cells to score", "call": "inactive"}
{"target": "Slc25a30", "p65 translocation robust z-score": 1.66, "nuclear/cytoplasmic p65 ratio, rep 1": 1.51, "nuclear/cytoplasmic p65 ratio, rep 2": 1.45, "low cell count flag": "enough cells to score", "call": "inactive"}
{"target": "Rilpl1", "p65 translocation robust z-score": 0.27, "nuclear/cytoplasmic p65 ratio, rep 1": 1.32, "nuclear/cytoplasmic p65 ratio, rep 2": 1.26, "low cell count flag": "enough cells to score", "call": "inactive"}

Continued:
| target | p65 translocation robust z-score | nuclear/cytoplasmic p65 ratio, rep 1 | nuclear/cytoplasmic p65 ratio, rep 2 | low cell count flag | call |
| --- | --- | --- | --- | --- | --- |
| Mpp2 | -0.03 | 0 | 1.37 | enough cells to score | inactive |
| Actbl2 | – | 1.18 | 1.3 | fewer than 50 cells per well; well left out of scoring | inactive |
| Ryr2 | -0.33 | 1.47 | 1.48 | enough cells to score | inactive |
| Il24 | -0.73 | 1.33 | 1.33 | enough cells to score | inactive |
| Aldh3a2 | 0.09 | 1.68 | 1.59 | enough cells to score | inactive |
| Prl2c4 | -0.27 | 1.72 | 1.57 | enough cells to score | inactive |
| Calm1 | – | 1.41 | 1.4 | fewer than 50 cells per well; well left out of scoring | inactive |
| Spaca7 | – | 1.53 | 1.88 | fewer than 50 cells per well; well left out of scoring | inactive |
| Rs1 | -0.9 | 1.37 | 1.41 | enough cells to score | inactive |
| Klk7 | 1.36 | 1.76 | 1.6 | enough cells to score | inactive |
| Ap3s2 | 0.14 | 1.63 | 1.52 | enough cells to score | inactive |
| Patl1 | -0.33 | 1.58 | 1.53 | enough cells to score | inactive |
| Pole | -0.4 | 1.47 | 1.33 | enough cells to score | inactive |
| Ces2b | 0.44 | 1.54 | 2.03 | enough cells to score | inactive |
| Bcl2l10 | -0.81 | 1.46 | 1.53 | enough cells to score | inactive |
| Plcz1 | – | 1.47 | 1.09 | fewer than 50 cells per well; well left out of scoring | inactive |
| Fgd4 | 1.6 | 1.81 | 1.69 | enough cells to score | inactive |
| Nlrp2 | -0.48 | 1.41 | 1.3 | enough cells to score | inactive |
| Gsn | -1.03 | 1.31 | 1.22 | enough cells to score | inactive |
| Rhbdl3 | -0.18 | 1.38 | 1.21 | enough cells to score | inactive |
| Prkrip1 | 0.06 | 1.39 | 1.22 | enough cells to score | inactive |
| Brd4 | -2.13 | 1.28 | 1.31 | enough cells to score | active |
| Sgf29 | 0.13 | 1.33 | 1.51 | enough cells to score | inactive |
| Zzz3 | -0.14 | 1.45 | 1.23 | enough cells to score | inactive |
| Adora2a | 0.5 | 1.58 | 1.65 | enough cells to score | inactive |
| Zfp628 | -1.04 | 1.35 | 1.07 | enough cells to score | inactive |
| Sgk2 | -0.56 | 1.3 | 1.31 | enough cells to score | inactive |
| Ntm | 1.23 | 1.58 | 1.55 | enough cells to score | inactive |
| Hes7 | -1.58 | 1.29 | 1.11 | enough cells to score | active |
| Dld | 0.64 | 1.58 | 1.45 | enough cells to score | inactive |
| Wap | 0.45 | 1.51 | 1.23 | enough cells to score | inactive |
| Fam114a1 | 1.14 | 1.65 | 1.63 | enough cells to score | inactive |
| Nek2 | -1.53 | 1.36 | 1.25 | enough cells to score | inactive |
| Hyou1 | -0.22 | 1.42 | 1.34 | enough cells to score | inactive |
